Measured values taken from article doi:10.1101/2023.07.24.550360.

Biological target: TbCul-A (T. brucei brucei (endogenous in procyclic Lister 427 cells))
Experiment: affinity purification with mass spectrometry

B1: ornithine decarboxylase (TbODC) (enzyme, UniProt P07805 1-423)
chain: MDIVVNDDLSCRFLEGFNTRDALCKKISMNTCDEGDPFFVADLGDIVRKHETWKKCLPRVTPFYAVKCNDDWRVLGTLAALGTGFDCASNTEIQRVRGIGVPPEKIIYANPCKQISHIRYARDSGVDVMTFDCVDELEKVAKTHPKAKMVLRISTDDSLARCRLSVKFGAKVEDCRFILEQAKKLNIDVTGVSFHVGSGSTDASTFAQAISDSRFVFDMGTELGFNMHILDIGGGFPGTRDAPLKFEEIAGVINNALEKHFPPDLKLTIVAEPGRYYVASAFTLAVNVIAKKVTPGVQTDVGAHAESNAQSFMYYVNDGVYGSFNCILYDHAVVRPLPQREPIPNEKLYPSSVWGPTCDGLDQIVERYYLPEMQVGEWLLFEDMGAYTVVGTSSFNGFQSPTIYYVVSGLPDHVVRELKSQKS
Q: B1 was tested. Which binding did it give?
A: binds

These are yes or no findings as the source states them, for the method shown. Binding seen in cells or lysates may run through a third protein. Here binding means that the protein was enriched with, or labelled near, the bait; the list need not be complete.
